Measurements: patent publication US20250034144A1, “NEW CRYSTAL FORM OF ERTAPENEM SODIUM AND PREPARATION METHOD THEREFOR” (ASYMCHEM LABORATORIES (TIANJIN) CO., LTD., priority 2021, published 2025)

Tests used:
[1] = Press filtration until no filtrate dropped (filtration time); details: 100 g (±5%), vacuum ≤ −0.095 MPa, Hastelloy filter dryer 800 mL
Description: (§1) (One) 100 g (±5%) of the crystal form product in Example 1, the crystal form A product, the crystal form B product, the crystal form C product, the crystal form D product, the crystal form E product and the amorphous product of ertapenem sodium were separately taken and subjected to press filtration until no filtrate dropped, followed by drying until a solvent residue satisfied ICH standards. As the crystal form B was obtained by stirring and washing the crystal form A and the crystal form C was obtained by stirring and washing the crystal form B, only the filtration time of the crystal form A was counted. • 2. The press filtration was performed by a same Hastelloy filter dryer (800 mL ϕ=110 mm), it was ensured that the press filtration was performed at a vacuum degree (p) of equal to or less than −0.095 MPa, and meanwhile, an upper port of the filter dryer was protected with nitrogen. • 3. The drying was performed at a temperature of 5-15° C., a nitrogen flow rate of 1-2 m^3/h and a nitrogen humidity of 20-40%.

[2] = Drying until solvent residue satisfied ICH standards (drying time); details: 5-15° C., nitrogen flow 1-2 m^3/h, nitrogen humidity 20-40%
Description: as §1

In the case of `C[C@@H](O)[C@H]1C(=O)N2C(C(=O)[O-])=C(S[C@@H]3CN[C@H](C(=O)Nc4cccc(C(=O)O)c4)C3)[C@H](C)[C@H]12.[Na+]` [Amorphous, ertapenem sodium], the Filtration time [1] is reported as 117 min and the Drying time [2] is reported as 25 h.

Compound `C[C@@H](O)[C@H]1C(=O)N2C(C(=O)[O-])=C(S[C@@H]3CN[C@H](C(=O)Nc4cccc(C(=O)O)c4)C3)[C@H](C)[C@H]12.[Na+]` [Crystal form A, ertapenem sodium] has a Filtration time [1] of 63 min and a Drying time [2] of 35 h.

`C[C@@H](O)[C@H]1C(=O)N2C(C(=O)[O-])=C(S[C@@H]3CN[C@H](C(=O)Nc4cccc(C(=O)O)c4)C3)[C@H](C)[C@H]12.[Na+]` [Crystal form B, ertapenem sodium] showed a Drying time [2] of 23 h.

Compound `C[C@@H](O)[C@H]1C(=O)N2C(C(=O)[O-])=C(S[C@@H]3CN[C@H](C(=O)Nc4cccc(C(=O)O)c4)C3)[C@H](C)[C@H]12.[Na+]` [Crystal form C, ertapenem sodium] has a Drying time [2] of 11 h.

Compound `C[C@@H](O)[C@H]1C(=O)N2C(C(=O)[O-])=C(S[C@@H]3CN[C@H](C(=O)Nc4cccc(C(=O)O)c4)C3)[C@H](C)[C@H]12.[Na+]` [Crystal form D, ertapenem sodium] has a Filtration time [1] of 110 min and a Drying time [2] of 15 h.

Compound `C[C@@H](O)[C@H]1C(=O)N2C(C(=O)[O-])=C(S[C@@H]3CN[C@H](C(=O)Nc4cccc(C(=O)O)c4)C3)[C@H](C)[C@H]12.[Na+]` [Crystal form E, ertapenem sodium] has a Filtration time [1] of 85 min and a Drying time [2] of 17 h.

`C[C@@H](O)[C@H]1C(=O)N2C(C(=O)[O-])=C(S[C@@H]3CN[C@H](C(=O)Nc4cccc(C(=O)O)c4)C3)[C@H](C)[C@H]12.[Na+]` [Example 1, ertapenem sodium] showed a Filtration time [1] of 25 min and a Drying time [2] of 9 h.
